Reference: patent US20030114362A1 (Novaspin Biotech GmbH, priority 2001, published 2003)

Experiment: general procedure: Fmoc solid-phase peptide synthesis; Tritylchloropolystyrene (TCP) resin, PepChem Goldammer & Clausen; HATU/HOAt/2,4,6-collidine
Settings: whole synthesis

| Substance | isolated yield |
| --- | --- |
| cyclo[-Phe-DTrp-Lys-Z1-] | 36% |
| cyclo[-Phe-Trp-Lys-Z1-] | 33% |
